# In PubChem BioAssay AID1259354 (Paczesny and Yang Labs, IUPUI and University of Michigan, 2018):
# Protein sequences, listed by entry. Tags and fused reporters are not part of them. Lines headed by an entry give the natural chain unless they say otherwise; changes in a name come on top.
# UniProt Q01638: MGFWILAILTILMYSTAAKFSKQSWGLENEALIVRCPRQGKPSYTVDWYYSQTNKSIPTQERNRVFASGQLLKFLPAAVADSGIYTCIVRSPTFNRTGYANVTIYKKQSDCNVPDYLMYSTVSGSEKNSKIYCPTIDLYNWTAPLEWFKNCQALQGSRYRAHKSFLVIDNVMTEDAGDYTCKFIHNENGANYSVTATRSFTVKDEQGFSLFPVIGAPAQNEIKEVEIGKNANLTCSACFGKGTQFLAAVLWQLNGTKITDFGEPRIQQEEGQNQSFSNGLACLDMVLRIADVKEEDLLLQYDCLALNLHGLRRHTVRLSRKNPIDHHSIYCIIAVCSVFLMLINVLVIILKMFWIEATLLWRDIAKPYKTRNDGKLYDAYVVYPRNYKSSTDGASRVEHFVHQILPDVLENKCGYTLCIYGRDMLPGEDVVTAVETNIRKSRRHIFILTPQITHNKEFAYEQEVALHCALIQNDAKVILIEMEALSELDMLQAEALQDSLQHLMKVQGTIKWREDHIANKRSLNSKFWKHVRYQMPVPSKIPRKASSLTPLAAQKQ
# Hit rate of the full screen: of about 78,000 compounds, about 1,800 (2.3%) were called active. The inconclusive results got no clear call from the source; some entries with a clear call stand among them for comparison. Cut-off read from the data, not from the text of the source: active = inhibition above about 30%; inconclusive = mostly about 10% to 28%; inactive = weaker than that.
# Biological target: Interleukin-1 receptor-like 1 (Homo sapiens) (UniProt Q01638)
# Test: blocks human ST2 binding to IL-33, primary screen, biochemical, AlphaLISA (AID 1259354)
# Settings: AlphaLISA ST2-Fc/biotin-IL-33 interaction, 1 h; at 17 µM, active compounds read high
row,Compound,inhibition
1,O=C(c1cc(Br)cc(Br)c1)N1CCCC1,inconclusive: 13%
2,Cc1nn(C)c(C)c1CN(CCO)C(=O)CC12CC3CC(CC(C3)C1)C2,inconclusive: 16%
3,Cc1ccnc(NC(c2ccccc2C)c2ccc3cccnc3c2O)c1 (stereo unspecified),inconclusive: 21%
4,COC(=O)c1cc(O)c(C(=O)c2c(O)cccc2C(=O)O)c(O)c1,inactive
5,O=C(CCC1CCN(C(=O)CC2=CCCCC2)CC1)N1CCC(Cc2ccccc2)CC1,inconclusive: 11%
6,CCOC(=O)c1ccc(Nc2nc3nonc3nc2N(CC)CC)cc1,inactive
7,c1ccc(-c2ncn(C3CCNC3)c2-c2ccc(OCc3ccccn3)cc2)cc1 (stereo unspecified),inactive
8,Cc1[nH]nc(Nc2cccc(Cl)c2)c1[N+](=O)[O-],inconclusive: 27%
9,CN1CCN(c2ncccc2CNC(=O)C2CSC(C)(C)C(=O)N2)CC1 (stereo unspecified),inconclusive: 10%
10,Cn1c(C2CCC2)nc2cc(C(=O)N3CCc4sccc4C3)cc(NC(=O)C3CCCO3)c21 (stereo unspecified),inactive
11,CSCCC(NS(=O)(=O)c1ccc2ccccc2c1)C(=O)O (stereo unspecified),inconclusive: 26%
12,C/C=C/COc1nc2c(c(=O)n(C)c(=O)n2C)n1Cc1ccccc1F,inconclusive: 25%
13,O=C1CC(c2ccccc2Cl)CC2=C1C(c1ccc(O)cc1)Nc1ccccc1N2 (stereo unspecified),inactive
14,O=C(NCCN1CCOCC1)c1cc(-c2ccncc2)nc2ccccc12,inconclusive: 14%
15,CN1C[C@@H](NC(=O)Nc2ccc(Cl)cc2)C[C@H]1c1nc(-c2ccc(F)cc2)no1,inconclusive: 12%
16,Cc1ccsc1C(=O)N1CCCC(C(=O)Nc2cccc(-c3cc4ccccc4[nH]3)c2)C1 (stereo unspecified),inconclusive: 14%
17,COc1ccc(F)c(-c2cncc(C(=O)N3CCOCC3)n2)c1,inactive
18,Cc1cccc(NC(=O)c2c(-c3ccccc3)noc2C)c1C,inactive
19,COc1ccc(Cc2noc(-c3ccccc3Br)n2)cc1OC,inactive
20,O=c1[nH]nc(CCn2ccnc2-c2ccc3c(c2)Cc2ccccc2-3)[nH]1,inconclusive: 14%
21,O=c1[nH]c(CSCCO)nc2c1C1(CCCCC1)Cc1ccccc1-2,inconclusive: 17%
22,COc1ccccc1C(=O)Nc1c2c(nn1-c1ccc(F)cc1)CS(=O)C2 (stereo unspecified),inactive
23,COc1ccc(OC(C)C(=O)Nc2ccc([N+](=O)[O-])cc2OC)cc1 (stereo unspecified),inconclusive: 14%
24,COCCO[C@H]1[C@H](NC(=O)C(C)C)c2ccccc2C12CCN(C(=O)c1cccnc1SC)CC2,inconclusive: 15%

row,Compound,inhibition
1,Cc1nc2ccccc2c2oc(C(=O)Nc3ccc(F)cc3)cc12,inconclusive: 13%
2,CN1CCC(N(C)Cc2ccc(Cl)c(Cl)c2)CC1,inconclusive: 11%
3,Cc1ccc(S(=O)(=O)NC2=NCN(c3cccc([N+](=O)[O-])c3)CN2)cc1,inactive
4,Clc1ccc(-c2cn3ccsc3n2)cc1,inactive
5,O=C1CCN(c2nc(-c3ccccc3)nc3c2CCNC3)CCN1,inconclusive: 13%
6,COc1cc(N2CCC3(CC2)CNC(=O)C3)ncn1,inconclusive: 21%
7,Cc1ccc(C2(O)CCN(c3ccc(-c4nccn4C)nn3)CC2)nc1,inconclusive: 11%
8,CCOc1ccccc1N1CCN(Cc2ccc3c(c2)OCO3)CC1,inconclusive: 13%
9,O=C(Nc1ccc2cccnc2c1)c1ccc(Br)cc1,inconclusive: 28%
10,CCCCN(C)C(=O)c1nn(-c2ccc(OC)c(Cl)c2)c(=O)c2c1c1ccccc1n2C,inconclusive: 20%
11,O=C(O)CCC(=O)N[C@H]1CO[C@H]2[C@@H]1OC[C@@H]2Nc1nccc(-c2cccc(F)c2)n1,inconclusive: 16%
12,O=C(Nc1ccc(-c2cscn2)cc1)C1CCCN(C(=O)CN2CCCC2=O)C1 (stereo unspecified),inconclusive: 12%
13,O=C(Nc1cccc(F)c1)N1CCN(c2ccc(F)cc2)CC1,inactive
14,CN(CCC#N)C(=O)COc1ccc2c(c1)C(=O)CC(C)(C)O2,inactive
15,CCOc1cc2c(C)cc(=O)oc2cc1Cl,inconclusive: 10%
16,Cc1ccccc1Oc1ncccc1CNC(=O)Cn1cccnc1=O,inconclusive: 10%
17,C=CCOc1ccc(C(=O)n2cc(Br)cn2)cc1,inconclusive: 13%
18,CC(=O)N[C@@H]1C[C@H](CC(C)C)O[C@H](c2c(C)nn(C)c2Cl)C1,inconclusive: 10%
19,C=CCOc1ccc(C2Oc3nc(SC)nnc3-c3ccccc3N2C(C)=O)cc1 (stereo unspecified),inconclusive: 12%
20,Cc1nc2sc(C(c3ccccc3)N3CCC(C)CC3)c(O)n2n1 (stereo unspecified),inconclusive: 19%
21,COc1ccc(OC)c2sc(N3CCN(c4ccccc4)CC3)nc12,inconclusive: 14%
22,CCOc1cccc(OCCCCN2CCN(C)CC2)c1,inactive
23,Cc1ccc(S(=O)(=O)Nc2ccc(Cl)c3cccnc23)cc1,inconclusive: 18%
24,COc1ccccc1Nc1ncc(C(=O)NCc2cccnc2)c2ccccc12,inconclusive: 23%

row,Compound,inhibition
1,O=C(Cc1ccc(Cl)cc1)NC1CC(=O)N(c2ccccc2)C1 (stereo unspecified),inactive
2,CC(=O)C1=NN(c2ccccc2C)C2C(=O)N(c3ccccc3Cl)C(=O)C12 (stereo unspecified),inconclusive: 11%
3,CN(C)C(=O)c1ccc2c(c1)NC(=O)C1CCCCN21 (stereo unspecified),inactive
4,COc1ccc(/C=c2\sc3n(c2=O)CN(c2ccccc2)CN=3)cc1,inconclusive: 25%
5,Cc1ccc(N=Cc2cc(Cl)cc([N+](=O)[O-])c2O)c(C)c1,inactive
6,COc1ccc(S(=O)(=O)N2CCN(C(=O)c3ccccc3[N+](=O)[O-])CC2)cc1,inconclusive: 12%
7,CCCC(=O)Nc1ccc(Nc2nc(C)cc(Nc3ccccc3)n2)cc1,active: 31%
8,Oc1ccc(C(O)Cn2cc(CCc3ccccc3)nn2)cc1 (stereo unspecified),inactive
9,CN1CCN(c2nc(-c3ccccc3)cc(C(F)(F)F)n2)CC1,inconclusive: 15%
10,O=C(C(=O)N1CCOC(CCCc2ccccc2)C1)c1ccco1 (stereo unspecified),inactive
11,CC(C)CN1CCC(NCc2ccccc2-n2ccnc2)CC1,inactive
12,CCCNC(=O)Cn1c(=O)n(CC2CCC(C(=O)NC)CC2)c(=O)c2sccc21 (stereo unspecified),inactive
13,CN1CCCN(Cc2ccc(F)cc2F)CC1,inactive
14,O=C1c2ccccc2C(=O)c2c1cccc2S(=O)(=O)Nc1ccc(Cl)cc1,active: 52%
15,CCc1nc(C)c(C(=O)N(CC2COc3ccccc3O2)C(C)C)o1 (stereo unspecified),inconclusive: 10%
16,O=S(=O)(NCC1COc2ccccc2O1)c1cccc2cccnc12 (stereo unspecified),inconclusive: 22%
17,c1ccc(-n2cc(-c3nc4c(cnn4Cc4cccs4)[nH]3)cn2)cc1,inconclusive: 12%
18,CCc1cn[nH]c1C1CCCN(C(=O)c2cc(C(C)C)n3ncnc3n2)C1 (stereo unspecified),inconclusive: 18%
19,COc1ccc(N2CCN(C(=O)CCCNS(=O)(=O)c3cccs3)CC2)cc1,inconclusive: 14%
20,O=C(CSc1nnc(-c2ccco2)n1-c1ccccc1)c1ccc(Cl)cc1,inactive
21,Cc1cc(CC(=O)NC(CC(C)C)c2nnc3n2CCNCC3)on1 (stereo unspecified),inconclusive: 11%
22,COCCNC(=O)c1ccc(CS(=O)(=O)c2ccc(Br)cc2)o1,inactive
23,O=C(O)c1cccc(NC2=CC(=NS(=O)(=O)c3cccs3)c3ccccc3C2=O)c1,active: 40%
24,CC(=O)N(C1=C(N2CCOCC2)C(=O)c2ccccc2C1=O)c1ccc(C(=O)O)cc1,inconclusive: 18%

# Shown with tabs: part of the list above
row	Compound	inhibition
17	C=CCOc1ccc(C(=O)n2cc(Br)cn2)cc1	inconclusive: 13%
18	CC(=O)N[C@@H]1C[C@H](CC(C)C)O[C@H](c2c(C)nn(C)c2Cl)C1	inconclusive: 10%
19	C=CCOc1ccc(C2Oc3nc(SC)nnc3-c3ccccc3N2C(C)=O)cc1 (stereo unspecified)	inconclusive: 12%
20	Cc1nc2sc(C(c3ccccc3)N3CCC(C)CC3)c(O)n2n1 (stereo unspecified)	inconclusive: 19%
21	COc1ccc(OC)c2sc(N3CCN(c4ccccc4)CC3)nc12	inconclusive: 14%
22	CCOc1cccc(OCCCCN2CCN(C)CC2)c1	inactive
23	Cc1ccc(S(=O)(=O)Nc2ccc(Cl)c3cccnc23)cc1	inconclusive: 18%
24	COc1ccccc1Nc1ncc(C(=O)NCc2cccnc2)c2ccccc12	inconclusive: 23%
1	O=C(Cc1ccc(Cl)cc1)NC1CC(=O)N(c2ccccc2)C1 (stereo unspecified)	inactive
2	CC(=O)C1=NN(c2ccccc2C)C2C(=O)N(c3ccccc3Cl)C(=O)C12 (stereo unspecified)	inconclusive: 11%
3	CN(C)C(=O)c1ccc2c(c1)NC(=O)C1CCCCN21 (stereo unspecified)	inactive
4	COc1ccc(/C=c2\sc3n(c2=O)CN(c2ccccc2)CN=3)cc1	inconclusive: 25%
5	Cc1ccc(N=Cc2cc(Cl)cc([N+](=O)[O-])c2O)c(C)c1	inactive
6	COc1ccc(S(=O)(=O)N2CCN(C(=O)c3ccccc3[N+](=O)[O-])CC2)cc1	inconclusive: 12%
7	CCCC(=O)Nc1ccc(Nc2nc(C)cc(Nc3ccccc3)n2)cc1	active: 31%
8	Oc1ccc(C(O)Cn2cc(CCc3ccccc3)nn2)cc1 (stereo unspecified)	inactive
9	CN1CCN(c2nc(-c3ccccc3)cc(C(F)(F)F)n2)CC1	inconclusive: 15%
10	O=C(C(=O)N1CCOC(CCCc2ccccc2)C1)c1ccco1 (stereo unspecified)	inactive
11	CC(C)CN1CCC(NCc2ccccc2-n2ccnc2)CC1	inactive
12	CCCNC(=O)Cn1c(=O)n(CC2CCC(C(=O)NC)CC2)c(=O)c2sccc21 (stereo unspecified)	inactive
13	CN1CCCN(Cc2ccc(F)cc2F)CC1	inactive
14	O=C1c2ccccc2C(=O)c2c1cccc2S(=O)(=O)Nc1ccc(Cl)cc1	active: 52%
15	CCc1nc(C)c(C(=O)N(CC2COc3ccccc3O2)C(C)C)o1 (stereo unspecified)	inconclusive: 10%
16	O=S(=O)(NCC1COc2ccccc2O1)c1cccc2cccnc12 (stereo unspecified)	inconclusive: 22%
17	c1ccc(-n2cc(-c3nc4c(cnn4Cc4cccs4)[nH]3)cn2)cc1	inconclusive: 12%
18	CCc1cn[nH]c1C1CCCN(C(=O)c2cc(C(C)C)n3ncnc3n2)C1 (stereo unspecified)	inconclusive: 18%
19	COc1ccc(N2CCN(C(=O)CCCNS(=O)(=O)c3cccs3)CC2)cc1	inconclusive: 14%
20	O=C(CSc1nnc(-c2ccco2)n1-c1ccccc1)c1ccc(Cl)cc1	inactive

# Next compounds.

row,Compound,inhibition
1,CCOC(=O)C1(Cc2ccc(F)cc2F)CCCN(C(=O)C2=CC(=O)CC(C)(C)O2)C1 (stereo unspecified),inactive
2,Cc1ccc(C2C(C#N)=C(N)OC3=C2C(=O)CCC3)o1 (stereo unspecified),inactive
3,Cc1cccc(-n2cccc2CN2CCOC(CN)C2)c1 (stereo unspecified),inconclusive: 12%
4,COc1ccc(-c2cc(C[C@H]3CNCC[C@H]3CC(=O)N3CCN(c4ccccc4)CC3)no2)cc1,inactive
5,Cc1cc(=O)oc2cc(OCC(=O)Nc3ccc4c(c3)OCO4)ccc12,inconclusive: 19%
6,CC(NS(=O)(=O)c1ccc(Br)cc1)C(c1cccs1)N1CCOCC1 (stereo unspecified),inconclusive: 10%
7,CC(C)NC(=O)NC[C@H]1O[C@@H](CC(=O)NCc2ccc(F)cc2)[C@H](O)[C@@H]1O,inconclusive: 14%
8,CC(C)c1cc(CN2CCN(c3nc4ccccc4n3CCO)CC2)on1,inactive
9,COc1ccc(NS(=O)(=O)c2c(Cl)nc(C)c(Cl)c2C)cc1,inactive
10,CC1(C)OC(=O)C(=Cc2c[nH]c3ccccc23)C(=O)O1,inconclusive: 22%
11,CC(C)n1c(Br)nc2c1c(=O)n(C)c(=O)n2C,inconclusive: 11%
12,CCOc1ccc(NC(=O)c2ccccc2NC(=O)c2ccccc2)cc1,inconclusive: 20%
13,c1cc(-c2nc3ccncc3[nH]2)ccn1,inactive
14,COc1ccc(OC)c(C(=O)c2ccc(C(=O)NCC3Cc4cccc(-c5ccncc5)c4O3)cc2)c1 (stereo unspecified),inconclusive: 17%
15,Cc1cc(Br)ccc1NC(=O)Cc1c(C(=O)O)[nH]c2ccc(Cl)cc12,inactive
16,COc1ccc(NC(=O)c2oc3ccccc3c2NC(=O)c2ccc3c(c2)OCO3)c(OC)c1,inactive
17,CCOc1ccc(CN2C(=O)CCC2(C)C(=O)NC2CCCC2)cc1 (stereo unspecified),inactive
18,CC1=NN(Cc2ccccc2)C(=O)/C1=C/c1ccc(N(C)C)cc1,active: 44%
19,COc1ccc2c(c1)C1=NN(C(C)=O)C(c3cccc([N+](=O)[O-])c3)C1CC2 (stereo unspecified),inconclusive: 21%
20,CN(Cc1ccccc1)C(=O)c1nc2ccccn2c1CNCc1n[nH]c2c1CCC2,inconclusive: 18%
21,Oc1oc(-c2ccc(Br)cc2)nc1C=Nc1cccc(F)c1,inconclusive: 26%
22,Cc1ccc(NC(=O)CN2CCN(Cc3cccc(Cl)c3)S2(=O)=O)cc1,inactive
23,Cc1nc2cc(-c3ccccc3)nn2c(C)c1CCC(=O)N1CCOCC1,inactive
24,Cc1cc(C)cc(NC(=O)CSc2nc(C)cc(=O)[nH]2)c1,inconclusive: 21%
